Data taken from PMC7730289.
The exact form of at least one protein or probe is not confirmed. Weaker means in comparison with the reference protein, sequence or condition of that experiment.

Amino acid sequences for entries named in this document (tags omitted). Residues count along the entry.
UniProt P08962, 103-203: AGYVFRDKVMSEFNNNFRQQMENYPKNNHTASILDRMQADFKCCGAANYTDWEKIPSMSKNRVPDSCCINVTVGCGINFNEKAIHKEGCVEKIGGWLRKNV

Molecular target: CD63 large extracellular domain, recombinant (Homo sapiens) (UniProt P08962)
Experiment: ELISA
Conditions: 10 min 0.5 M NaCl after binding (Fig S2 legend prints 0.5 mM), PBS pH 7.4, 2.0 mM MgCl2, 0.02% Tween 20, 100 ug/mL salmon sperm DNA, ELISA 0.5 h, cells at RT 1 h (Methods) or 37 C 30 min (Results), commercial protein, residues 103-203, protein details: C-terminal His, single-stranded DNA

TAACACGACAGACGTTCGGAGGTCGAACCCTGACAGCGTGGGC [CD63-1]
binding result (label: 5' or 3' biotin (ELISA)): binds more weakly

TAACCACCCCACCTCGCTCCCGTGACACTAATGCTAATTCCAA [CD63-2]
binding result (label: biotin (ELISA)): binds more weakly
